No constants are given. Whether binding was seen depends on the method and setting. In cells and extracts the contact can be indirect. Some results given as binding are weak or reduced against the parent protein; the word gives no strength.
Columns and labels:
[1] = target: endogenous SIRT1 of HEK293 cells (UniProt Q96EB6); experiment: reciprocal co-immunoprecipitation of endogenous proteins, HEK293 cells (FIG. 1B)
[2] = target: endogenous SIRT1 of HEK293 cells (UniProt Q96EB6); experiment: reciprocal co-immunoprecipitation of endogenous proteins from HEK293 lysate (FIG. 1B)
[3] = target: T1, endogenous SIRT1 of mouse bone marrow stromal cells and mouse embryonic fibroblasts (mouse) (UniProt Q923E4); experiment: anti-SIRT1 co-immunoprecipitation in Zmpste24^-/- BMSCs with or without resveratrol, immunoblot (FIG. 4C)
T1 sequence (looked up): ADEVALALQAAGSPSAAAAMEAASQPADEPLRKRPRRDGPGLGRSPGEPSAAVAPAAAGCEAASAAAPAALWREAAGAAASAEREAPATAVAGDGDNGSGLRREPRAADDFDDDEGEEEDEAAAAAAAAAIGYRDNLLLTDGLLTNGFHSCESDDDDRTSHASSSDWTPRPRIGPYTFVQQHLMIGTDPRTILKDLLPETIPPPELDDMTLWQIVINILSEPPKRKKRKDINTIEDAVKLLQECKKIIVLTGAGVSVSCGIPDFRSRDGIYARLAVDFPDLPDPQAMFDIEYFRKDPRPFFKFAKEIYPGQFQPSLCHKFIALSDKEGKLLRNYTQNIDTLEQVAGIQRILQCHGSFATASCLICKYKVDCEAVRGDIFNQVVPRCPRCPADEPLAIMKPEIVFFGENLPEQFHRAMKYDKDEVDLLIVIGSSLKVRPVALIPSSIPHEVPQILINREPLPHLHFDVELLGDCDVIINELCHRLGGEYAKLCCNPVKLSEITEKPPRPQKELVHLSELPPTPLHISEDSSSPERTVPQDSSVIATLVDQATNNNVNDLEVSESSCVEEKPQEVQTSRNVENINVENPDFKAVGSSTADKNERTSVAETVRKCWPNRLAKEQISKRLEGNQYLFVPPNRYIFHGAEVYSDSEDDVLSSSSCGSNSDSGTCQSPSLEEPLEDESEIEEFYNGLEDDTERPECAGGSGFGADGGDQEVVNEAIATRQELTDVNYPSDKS

The chains behind the UniProt entries cited, without tags or fusion partners. Where a name states a change or a piece, a line headed by the entry shows the natural chain unless it says otherwise. Residues count along the entry.
UniProt Q96EB6: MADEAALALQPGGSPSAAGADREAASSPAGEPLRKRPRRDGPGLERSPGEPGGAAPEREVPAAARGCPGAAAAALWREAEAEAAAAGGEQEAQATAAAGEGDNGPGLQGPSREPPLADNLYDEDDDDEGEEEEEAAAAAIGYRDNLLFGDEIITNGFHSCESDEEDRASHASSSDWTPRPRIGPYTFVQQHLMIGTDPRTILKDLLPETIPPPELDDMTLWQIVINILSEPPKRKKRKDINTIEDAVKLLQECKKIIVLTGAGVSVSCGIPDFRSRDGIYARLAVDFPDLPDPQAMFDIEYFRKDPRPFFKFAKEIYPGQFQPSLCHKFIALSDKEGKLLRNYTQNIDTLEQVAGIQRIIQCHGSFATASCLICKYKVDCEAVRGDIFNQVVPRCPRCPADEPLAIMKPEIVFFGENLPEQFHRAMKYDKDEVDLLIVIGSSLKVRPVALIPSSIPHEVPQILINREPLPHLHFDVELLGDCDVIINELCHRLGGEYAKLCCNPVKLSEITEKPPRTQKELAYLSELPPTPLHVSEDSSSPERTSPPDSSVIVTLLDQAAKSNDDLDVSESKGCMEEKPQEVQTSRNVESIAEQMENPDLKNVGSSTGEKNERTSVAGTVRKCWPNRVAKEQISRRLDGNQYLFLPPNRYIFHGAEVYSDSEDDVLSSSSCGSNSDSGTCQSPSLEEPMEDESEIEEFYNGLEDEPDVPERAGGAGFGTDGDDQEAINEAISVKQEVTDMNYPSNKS
endogenous SIRT1 of HEK293 cells: residues 2-747 of Q96EB6
UniProt P02545, residues 1-646: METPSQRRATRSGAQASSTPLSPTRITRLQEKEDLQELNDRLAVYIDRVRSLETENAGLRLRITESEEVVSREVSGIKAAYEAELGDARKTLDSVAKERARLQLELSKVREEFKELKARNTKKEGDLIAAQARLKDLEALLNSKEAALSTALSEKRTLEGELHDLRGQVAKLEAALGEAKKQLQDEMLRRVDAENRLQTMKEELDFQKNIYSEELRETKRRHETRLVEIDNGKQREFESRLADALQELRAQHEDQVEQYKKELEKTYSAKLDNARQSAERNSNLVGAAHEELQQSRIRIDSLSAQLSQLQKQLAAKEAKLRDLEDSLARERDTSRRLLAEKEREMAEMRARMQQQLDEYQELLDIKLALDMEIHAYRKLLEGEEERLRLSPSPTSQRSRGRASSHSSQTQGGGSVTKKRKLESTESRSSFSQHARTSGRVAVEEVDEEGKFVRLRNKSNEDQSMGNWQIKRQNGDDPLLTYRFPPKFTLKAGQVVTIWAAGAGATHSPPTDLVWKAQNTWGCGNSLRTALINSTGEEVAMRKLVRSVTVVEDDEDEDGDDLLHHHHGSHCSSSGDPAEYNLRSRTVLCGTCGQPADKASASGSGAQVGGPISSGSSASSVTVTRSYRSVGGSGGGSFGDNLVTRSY
UniProt P48678, residues 1-662: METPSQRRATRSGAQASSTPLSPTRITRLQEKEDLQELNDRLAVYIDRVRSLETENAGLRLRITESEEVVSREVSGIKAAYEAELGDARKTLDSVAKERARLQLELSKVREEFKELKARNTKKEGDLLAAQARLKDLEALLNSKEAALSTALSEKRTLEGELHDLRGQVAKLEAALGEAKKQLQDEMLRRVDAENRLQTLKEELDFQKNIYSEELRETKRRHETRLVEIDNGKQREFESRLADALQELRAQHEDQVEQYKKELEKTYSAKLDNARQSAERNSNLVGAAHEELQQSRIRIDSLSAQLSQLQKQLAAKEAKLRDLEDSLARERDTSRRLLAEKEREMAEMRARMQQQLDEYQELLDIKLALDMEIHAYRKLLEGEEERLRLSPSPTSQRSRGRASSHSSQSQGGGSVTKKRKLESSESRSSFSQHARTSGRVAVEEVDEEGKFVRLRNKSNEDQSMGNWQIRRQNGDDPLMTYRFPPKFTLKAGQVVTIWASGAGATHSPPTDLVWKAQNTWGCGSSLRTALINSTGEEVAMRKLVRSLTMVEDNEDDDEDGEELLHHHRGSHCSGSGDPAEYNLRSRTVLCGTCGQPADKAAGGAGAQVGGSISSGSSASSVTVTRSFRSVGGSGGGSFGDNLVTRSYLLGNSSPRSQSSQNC

[4] = target: recombinant human SIRT1 (human) (UniProt Q96EB6); experiment: in vitro pull-down of recombinant proteins with anti-lamin A antibody (FIG. 1E)
[5] = target: recombinant human SIRT1 (human) (UniProt Q96EB6); experiment: in vitro co-immunoprecipitation with anti-lamin A/C antibody, with or without resveratrol (FIG. 3C)
[6] = target: recombinant human SIRT1 (human) (UniProt Q96EB6); experiment: in vitro pull-down of recombinant proteins (FIG. 1E)
[7] = target: recombinant human SIRT1 (human) (UniProt Q96EB6); experiment: in vitro pull-down of recombinant proteins with anti-lamin A antibody (FIG. 11A)
[8] = target: FLAG-tagged SIRT1 (ectopically expressed in HEK293 cells) (UniProt Q96EB6); experiment: anti-FLAG co-immunoprecipitation in co-transfected HEK293 cells treated with resveratrol, Western blot (FIG. 3D)
[9] = target: FLAG-tagged SIRT1 (ectopically expressed in HEK293 cells) (UniProt Q96EB6); experiment: reciprocal co-immunoprecipitation in transfected HEK293 cells, Western blot (FIG. 1A)
[10] = target: FLAG-tagged SIRT1 (ectopically expressed in HEK293 cells) (UniProt Q96EB6); experiment: anti-FLAG co-immunoprecipitation in HEK293 cells treated with resveratrol (FIGS. 3D, 3E)
[11] = target: FLAG-tagged SIRT1 (ectopically expressed in HEK293 cells) (UniProt Q96EB6); experiment: reciprocal co-immunoprecipitation in HEK293 cells expressing FLAG-SIRT1 (FIG. 1A)
[12] = target: FLAG-tagged SIRT1 (ectopically expressed in HEK293 cells) (UniProt Q96EB6); experiment: co-immunoprecipitation in HEK293 cells expressing FLAG-SIRT1 with lamin A or lamin C (FIG. 1F)
[13] = target: FLAG-tagged SIRT1 (ectopically expressed in HEK293 cells) (UniProt Q96EB6); experiment: anti-FLAG co-immunoprecipitation in transfected HEK293 cells, Western blot and quantification (FIGS. 1G, 1H)

Measured: binding

endogenous lamin A of HEK293 cells (from UniProt P02545 1-646)
binds: [1] | [2]

prelamin A of Zmpste24^-/- mouse bone marrow stromal cells (from UniProt P48678 1-662)
binds: [3]

recombinant human lamin A (Diatheva, Italy) (from UniProt P02545 1-646)
binds: [4] | [5] | [6] | [7]

wild-type lamin A (ectopically expressed in HEK293 cells) (from UniProt P02545 1-646)
binds: [8] | [9] | [10] | [11] | [12] | [13]
